Read-outs that look alike come from different tables or passages of the source. Some of these results come from one statement about several compounds together.
Tests used:
[1] = system: rice blast fungus (Magnaporthe grisea); assay type: in vivo
[2] = system: wheat leaf blotch fungus (Septoria tritici); experiment: Test Example 5: wheat leaf blotch control, foliar spray; assay type: in vivo; details: 500 ppm spray on wheat (APOGEE)
[3] = system: cucumber anthracnose fungus (Colletotrichum lagenarium); experiment: Test Example 9 and Comparative Test Example: cucumber anthracnose control, foliar spray; assay type: in vivo; details: 200 ppm spray on cucumber (SAGAMI HANJIRO)
[4] = system: barley net blotch fungus (Pyrenophora teres); experiment: Test Example 3: barley net blotch control, foliar spray; assay type: in vivo; details: 500 ppm spray on barley (NISHINOHOSHI)
[5] = system: cucumber powdery mildew fungus (Sphaerotheca fuliginea, a QoI-resistant strain); experiment: Test Example 6: cucumber powdery mildew control (QoI-resistant strain), foliar spray; assay type: in vivo; details: 500 ppm spray on cucumber (SAGAMI HANJIRO)
[6] = system: barley scald fungus (Rhynchosporium secalis); experiment: Test Example 8: barley scald control, foliar spray; assay type: in vivo; details: 200 ppm spray on barley (NISHINOHOSHI)
[7] = system: kidney bean stem rot fungus (Sclerotinia sclerotiorum); experiment: Test Example 4: kidney bean stem rot control, foliar spray; details: 500 ppm spray on kidney bean (NAGAUZURA SAITOU)
[8] = system: soybean rust fungus (Phakopsora pachyrhizi); experiment: Test Example 7: soybean rust control, foliar spray; assay type: in vivo; details: 200 ppm spray on soybean (KUROSENGOKU)
[9] = 500 ppm spray on rice (NIHONBARE), 6 days in contact with infected seedlings, high humidity

CC(=O)Oc1ccccc1COc1ccc(-c2nn(C)c(Cl)c2C)cc1C [present compound 1]
≤ 30%: lesion area on the treated plant with respect to the lesion area on the non-treated plant [1, 9]

Cc1cc(-c2nn(C)c(Cl)c2C)ccc1OCc1c(C)cccc1OC(=O)N(C)C [present compound 4]
≤ 30%: area of lesion on the treated plant relative to that on an untreated plant [2] | area of lesion on the treated plant relative to that on an untreated plant ([3]; […]) | area of lesion on the treated plant relative to that on an untreated plant [4]

COC(=O)Oc1c(C)cccc1COc1ccc(-c2nn(C)c(Cl)c2C)cc1C [present compound 5]
≤ 30%: lesion area on the treated plant with respect to the lesion area on the non-treated plant [1, 9] | area of lesion on the treated plant relative to that on an untreated plant ([3]; inoculated one day after spraying) | area of lesion on the treated plant relative to that on an untreated plant [5] | area of lesion on the treated plant relative to that on an untreated plant [6] | area of lesion on the treated plant relative to that on an untreated plant [4] | area of lesion on the treated plant relative to that on an untreated plant [7]

CNC(=O)Oc1c(C)cccc1COc1ccc(-c2nn(C)c(Cl)c2C)cc1C [present compound 6]
≤ 30%: area of lesion on the treated plant relative to that on an untreated plant [2] | area of lesion on the treated plant relative to that on an untreated plant [8] | lesion area on the treated plant with respect to the lesion area on the non-treated plant ([1]; in vivo) | area of lesion on the treated plant relative to that on an untreated plant ([3]; […]) | area of lesion on the treated plant relative to that on an untreated plant [6] | area of lesion on the treated plant relative to that on an untreated plant [4]

CNC(=O)Oc1cccc(C)c1COc1ccc(-c2nn(C)c(Cl)c2C)cc1C [present compound 7]
≤ 30%: area of lesion on the treated plant relative to that on an untreated plant [8] | area of lesion on the treated plant relative to that on an untreated plant ([3]; […]) | area of lesion on the treated plant relative to that on an untreated plant [6]

Source: patent publication US9573904B2, “Aromatic compound and use thereof” (Sumitomo Chemical Company, Limited, priority 2013, dated 2017)
